B1: GFP-RBM7-S136A (protein, UniProt Q9Y580 1-266)
chain: MGAAAAEADRTLFVGNLETKVTEELLFELFHQAGPVIKVKIPKDKDGKPKQFAFVNFKHEVSVPYAMNLLNGIKLYGRPIKIQFRSGSSHAPQDVSLSYPQHHVGNSSPTSTSPSRYERTMDNMTSSAQIIQRSFASPENFQRQAVMNSALRQMSYGGKFGSSPLDQSGFSPSVQSHSHSFNQSSSSQWRQGTPSSQRKVRMNSYPYLADRHYSREQRYTDHGSDHHYRGKRDDFFYEDRNHDDWSHDYDNRRDSSRDGKWRSSRH
B2: GFP-RBM7-S204A (protein, UniProt Q9Y580 1-266)
chain: MGAAAAEADRTLFVGNLETKVTEELLFELFHQAGPVIKVKIPKDKDGKPKQFAFVNFKHEVSVPYAMNLLNGIKLYGRPIKIQFRSGSSHAPQDVSLSYPQHHVGNSSPTSTSPSRYERTMDNMTSSAQIIQRSFSSPENFQRQAVMNSALRQMSYGGKFGSSPLDQSGFSPSVQSHSHSFNQSSSSQWRQGTPSSQRKVRMNAYPYLADRHYSREQRYTDHGSDHHYRGKRDDFFYEDRNHDDWSHDYDNRRDSSRDGKWRSSRH
B3: GFP-RBM7 with both serines mutated to alanine (S136A/S204A) (protein, UniProt Q9Y580 1-266)
chain: MGAAAAEADRTLFVGNLETKVTEELLFELFHQAGPVIKVKIPKDKDGKPKQFAFVNFKHEVSVPYAMNLLNGIKLYGRPIKIQFRSGSSHAPQDVSLSYPQHHVGNSSPTSTSPSRYERTMDNMTSSAQIIQRSFASPENFQRQAVMNSALRQMSYGGKFGSSPLDQSGFSPSVQSHSHSFNQSSSSQWRQGTPSSQRKVRMNAYPYLADRHYSREQRYTDHGSDHHYRGKRDDFFYEDRNHDDWSHDYDNRRDSSRDGKWRSSRH

Results are given in words; binding and its absence hold for the method and conditions named. Binding seen in cells or lysates may run through a third protein. Where a sequence is shown, tags or fusion partners need not be part of it.

This test deals with bacterially expressed GST-14-3-3 (human). The experiment in a line: pull-down; GST-14-3-3 added to lysates of mock- or UV-treated cells (293, HCT116, U2OS) and retrieved; blot for tagged RBM7 or ZCCHC8; also a time course after UV-C, ATR or CHK1 inhibitors, control or MK2 siRNA; only the target purified.
For the molecule B1, the binding entry is “no binding”.

Regarding B2, the binding entry was “no binding”.

Regarding B3, the binding entry was “no binding”.

Source of the values: PMC4173157.
